Results from the supplement of paper PMC4604168 (melanoma cell lines).
This is one part of the list. Repeats are few or missing, and single values can be far off.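 Cells were imaged in 1,536-well plates, and nuclei stained with an antibody against cleaved PARP were counted against all DNA-stained nuclei to give the apoptosis fraction. Screening doses were chosen to leave most cells alive, and resting and induced cleaved-PARP levels differ strongly between cell lines.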

How the values were obtained:
Assay in all cases: cleaved PARP positive nuclei fraction relative to DMSO control; melanoma cells; higher = more apoptosis
Conditions in all cases: library dose: low library concentration; 72 h
[1] = test system: 501Mel
[2] = test system: A101D
[3] = test system: A2058
[4] = test system: A375
[5] = test system: C32
[6] = test system: CBRC008 (line from a melanoma biopsy)
[7] = test system: CBRC013 (line from a melanoma biopsy)
[8] = test system: CBRC014 (line from a melanoma biopsy)
[9] = test system: CBRC016 (line from a melanoma biopsy)
[10] = test system: CBRC017 (line from a melanoma biopsy)
[11] = test system: COLO792
[12] = test system: COLO800
[13] = test system: COLO829
[14] = test system: G361
[15] = test system: IPC-298
[16] = test system: IST-MEL1
[17] = test system: LB2518-MEL
[18] = test system: LOXIMVI
[19] = test system: MEL-HO
[20] = test system: CBRC034 (line from a melanoma biopsy)

| Structure (SMILES) | cleaved PARP positive nuclei fraction [1] [%] | cleaved PARP positive nuclei fraction [2] [%] | cleaved PARP positive nuclei fraction [3] [%] | cleaved PARP positive nuclei fraction [4] [%] | cleaved PARP positive nuclei fraction [5] [%] | cleaved PARP positive nuclei fraction [6] [%] | cleaved PARP positive nuclei fraction [7] [%] | cleaved PARP positive nuclei fraction [8] [%] | cleaved PARP positive nuclei fraction [9] [%] | cleaved PARP positive nuclei fraction [10] [%] | cleaved PARP positive nuclei fraction [11] [%] | cleaved PARP positive nuclei fraction [12] [%] | cleaved PARP positive nuclei fraction [13] [%] | cleaved PARP positive nuclei fraction [14] [%] | cleaved PARP positive nuclei fraction [15] [%] | cleaved PARP positive nuclei fraction [16] [%] | cleaved PARP positive nuclei fraction [17] [%] | cleaved PARP positive nuclei fraction [18] [%] | cleaved PARP positive nuclei fraction [19] [%] | cleaved PARP positive nuclei fraction [20] [%] |
| --- | --- | --- | --- | --- | --- | --- | --- | --- | --- | --- | --- | --- | --- | --- | --- | --- | --- | --- | --- | --- |
| Nc1ncn([C@H]2C[C@H](O)[C@@H](CO)O2)c(=O)n1 [decitabine] + CN(NC(=O)CC(=O)NN(C)C(=S)c1ccccc1)C(=S)c1ccccc1 [STA4783] (first compound 0.1 µM, partner dose 0.006 µM) | 106 | 89 | 40.8 | 79.4 | 40.2 | 227 | 116 | 111 | 153 | 112 | 165 | 87.4 | 200 | 115 | 145 | 168 | 104 | 333 | 164 | – |
| CNC(=O)c1cc(Oc2ccc(NC(=O)Nc3ccc(Cl)c(C(F)(F)F)c3)cc2)ccn1 [sorafenib] + CC1(C)NC(=O)N(c2ccc([N+](=O)[O-])c(C(F)(F)F)c2)C1=O [nilutamide] (first compound 0.4 µM, partner dose 1 µM) | 83.5 | 80.3 | 81.6 | 97.3 | 45.5 | 105 | 55 | 86.2 | 127 | 93 | 30.2 | 41.8 | 141 | 183 | 71.2 | 93.4 | 91 | 59.1 | 142 | – |
| Cc1cc(Nc2cc(N3CCN(C)CC3)nc(/C=C/c3ccccc3)n2)n[nH]1 + Cc1cc(N2CCOCC2)cc2[nH]c(-c3c(NC[C@@H](O)c4cccc(Cl)c4)cc[nH]c3=O)nc12 [BMS536924] (first compound 0.04 µM, partner dose 0.2 µM) | 108 | 44.8 | 95.9 | 145 | 131 | 258 | 112 | 107 | 107 | 123 | 105 | 123 | 71.8 | 173 | 51.9 | 51.9 | 299 | 25.5 | 97.5 | – |
| Nc1nc(F)nc2c1ncn2[C@@H]1O[C@H](CO)[C@@H](O)[C@@H]1O [fludarabine] + O=C(O)c1ccc(-c2c[nH]c3ncc(-c4ccccc4)cc23)cc1C1CCCC1 [GSK650394] (first compound 0.2 µM, partner dose 0.16 µM) | 1740 | 45.4 | 89.2 | 9680 | 43.7 | 240 | 310 | 91 | 338 | 97.8 | 33 | 122 | 73.4 | 106 | 49.5 | 122 | 82.2 | 29.3 | 76.5 | – |
| Nc1ccn([C@@H]2O[C@H](CO)[C@@H](O)C2(F)F)c(=O)n1 [gemcitabine] + CC1(C)NC(=O)N(c2ccc([N+](=O)[O-])c(C(F)(F)F)c2)C1=O [nilutamide] (first compound 0.0004 µM, partner dose 1 µM) | 179 | 72.7 | 75.2 | 145 | 102 | 216 | 127 | 118 | 198 | 88.8 | 74.9 | 195 | 140 | 108 | 49.7 | 44.8 | 103 | 116 | 311 | – |
| Cc1cc(Nc2cc(N3CCN(C)CC3)nc(/C=C/c3ccccc3)n2)n[nH]1 + OCCn1cc(-c2cnc3nnn(Cc4ccc5ncccc5c4)c3n2)cn1 [PF04217903] (first compound 0.04 µM, partner dose 1 µM) | 180 | 104 | 96.6 | 26.5 | 47.1 | 257 | 107 | 217 | 35.3 | 89.8 | 51.9 | 37.7 | 104 | 133 | 89.5 | 82.6 | 48.1 | 19.9 | 186 | – |
| Cn1c(=O)n(-c2ccc(C(C)(C)C#N)cc2)c2c3cc(-c4cnc5ccccc5c4)ccc3ncc21 + C[C@@H]1CCN(C(=O)CC#N)C[C@@H]1N(C)c1ncnc2[nH]ccc12 [CP690550] (first compound 0.004 µM, partner dose 1 µM) | 96.2 | 36.3 | 21.4 | 64.2 | 47.8 | 56.2 | 75.4 | 80 | 90 | 80.3 | 80.6 | 42.3 | 111 | 103 | 47.5 | 49.2 | 82.8 | 95.3 | 137 | – |
| Cc1cc(Nc2cc(N3CCN(C)CC3)nc(/C=C/c3ccccc3)n2)n[nH]1 + O=C(O)c1ccc(-c2c[nH]c3ncc(-c4ccccc4)cc23)cc1C1CCCC1 [GSK650394] (first compound 0.04 µM, partner dose 0.16 µM) | 74.5 | 160 | 112 | 83.1 | 84.5 | 39.4 | 86.5 | 84.7 | 82.4 | 123 | 64.5 | 140 | 154 | 108 | 62.4 | 173 | 88.6 | 54.9 | 45.1 | – |
| Nc1nc(F)nc2c1ncn2[C@@H]1O[C@H](CO)[C@@H](O)[C@@H]1O [fludarabine] + CC(C)(C)c1cnc(CSc2cnc(NC(=O)C3CCNCC3)s2)o1 [SNS-032] (first compound 0.2 µM, partner dose 0.01 µM) | 1910 | 78.8 | 54.9 | 4860 | 103 | 154 | 521 | 93.5 | 113 | 86.2 | 150 | 59 | 132 | 52.4 | 48.3 | 221 | 186 | 176 | 152 | – |
| CN1CCN(c2ccc3nc(-c4c(N)c5c(F)cccc5[nH]c4=O)[nH]c3c2)CC1 [Dovitinib] + Cn1c(Nc2ccc(C(F)(F)F)cc2)nc2cc(Oc3ccnc(-c4ncc(C(F)(F)F)[nH]4)c3)ccc21 [CHIR265] (first compound 0.1 µM, partner dose 0.08 µM) | 86.7 | 84.1 | 265 | 274 | 108 | 45.5 | – | 139 | 23.7 | 76.9 | 218 | 109 | 48.1 | 58.8 | 37.6 | 407 | 104 | 23.3 | 157 | 190 |
| CO[C@H]1C[C@@H]2CC[C@@H](C)[C@@](O)(O2)C(=O)C(=O)N2CCCC[C@H]2C(=O)O[C@H]([C@H](C)C[C@@H]2CC[C@@H](OCCO)[C@H](OC)C2)CC(=O)[C@H](C)/C=C(\C)[C@@H](O)[C@@H](OC)C(=O)[C@H](C)C[C@H](C)/C=C/C=C/C=C/1C [everolimus] + Cn1nnc2c(C(N)=O)ncn2c1=O [temozolomide] (first compound 0.02 µM, partner dose 2 µM) | 215 | 110 | 65.9 | 860 | 252 | 333 | – | 128 | 103 | 145 | 153 | 225 | 119 | 88.1 | 114 | 85.5 | 144 | 149 | 264 | 41 |
| CC(C)C[C@H](NC(=O)[C@H](Cc1ccccc1)NC(=O)c1cnccn1)B(O)O [Bortezomib] + OCCn1cc(-c2cnc3nnn(Cc4ccc5ncccc5c4)c3n2)cn1 [PF04217903] (first compound 0.001 µM, partner dose 1 µM) | 210 | 326 | 94.2 | 91.2 | 97.7 | 506 | 133 | 147 | 152 | 188 | 56.2 | 107 | 102 | 1100 | 106 | 236 | 429 | 220 | 105 | – |

As entered above:
For cleaved PARP positive nuclei fraction [18] [%], Nc1ccn([C@@H]2O[C@H](CO)[C@@H](O)C2(F)F)c(=O)n1 [gemcitabine] + CC1(C)NC(=O)N(c2ccc([N+](=O)[O-])c(C(F)(F)F)c2)C1=O [nilutamide] (first compound 0.0004 µM, partner dose 1 µM) has the entry 116
For cleaved PARP positive nuclei fraction [11] [%], Nc1ncn([C@H]2C[C@H](O)[C@@H](CO)O2)c(=O)n1 [decitabine] + CN(NC(=O)CC(=O)NN(C)C(=S)c1ccccc1)C(=S)c1ccccc1 [STA4783] (first compound 0.1 µM, partner dose 0.006 µM) has the entry 165
